From patent publication US9463252B2 (priority 2008, dated 2016)

Columns and labels:
[1] = general procedure: Fmoc solid-phase peptide synthesis; 2-chlorotrityl resin; HATU/DIEA; conditions: whole synthesis, scale 2.4 mmol
[2] = general procedure: Fmoc solid-phase peptide synthesis; Fmoc-AA-diaminoethane trityl resin; 2-chlorotrityl resin; HATU/DIEA; conditions: whole synthesis, scale of the general procedure 0.1 mmol

Dov-Val-Dil-Dap-Phe (AF)
isolated mass [1]: 1.6 g
isolated yield [2]: 89%
